Results are given in words; binding and its absence hold for the method and conditions named. In cells and extracts the contact can be indirect.

Amino acid sequences for entries named in this document (tags omitted).
UniProt Q99321: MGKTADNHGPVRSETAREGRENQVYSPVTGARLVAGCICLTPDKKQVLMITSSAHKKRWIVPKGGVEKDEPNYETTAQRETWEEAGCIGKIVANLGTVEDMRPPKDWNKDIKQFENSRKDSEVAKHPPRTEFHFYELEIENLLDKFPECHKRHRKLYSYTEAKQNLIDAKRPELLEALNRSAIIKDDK
UniProt P38698: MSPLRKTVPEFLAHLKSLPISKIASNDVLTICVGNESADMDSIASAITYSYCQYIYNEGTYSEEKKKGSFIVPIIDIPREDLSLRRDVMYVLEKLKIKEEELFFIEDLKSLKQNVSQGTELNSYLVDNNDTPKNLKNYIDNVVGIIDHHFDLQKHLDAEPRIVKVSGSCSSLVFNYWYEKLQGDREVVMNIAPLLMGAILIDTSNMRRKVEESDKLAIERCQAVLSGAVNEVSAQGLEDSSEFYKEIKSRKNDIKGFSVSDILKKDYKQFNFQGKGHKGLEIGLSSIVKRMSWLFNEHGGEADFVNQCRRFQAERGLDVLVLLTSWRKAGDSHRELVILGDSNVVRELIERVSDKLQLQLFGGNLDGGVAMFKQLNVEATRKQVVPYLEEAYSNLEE

For this assay, the target named is 3HA-Ddp1 (diphosphoinositol polyphosphate phosphohydrolase, endopolyphosphatase) (S. cerevisiae) (UniProt Q99321). In words: co-IP; 3HA-Ddp1 immunoprecipitated from yeast lysate with anti-HA antibody and protein A beads; lysis buffer 0.1% NP-40, 150 mM NaCl, 50 mM Tris-HCl pH 8, 10% glycerol; 4°C; blot with anti-HA and anti-Ppx1.

With “Ppx1 (exopolyphosphatase) (from UniProt P38698 1-397) (enzyme)”, the binding result is “no binding”.
